Assay results taken from PMC6833008 (Molecules, 2019).

Test: peptide synthesis
Conditions: whole synthesis, HPLC

Point of comparison: KRWWR-NH2, “purity (crude or final not stated)” value 95.96%. Against it:
- YVAM-NH2 (C-terminal amide (-NH2)) — higher, 98.93%
- FRWWR-NH2 — higher, 98.79%
- YVAE-NH2 (C-terminal amide (-NH2)) — higher, 98.34%
- RRWQWR-NH2 — higher, 98.50%
